Measured values published in patent publication US20200405700A1 (priority 2019, published 2020).
Counter-ions that a name gives are not always drawn.

Test: Aerodynamic particle size distribution on Next Generation Impactor (NGI)
Assay type: physicochemical
Settings: sample 14 sprayed by soft mist inhaler, NGI at 30 L/min
Experimental: Sample 14 was sprayed by a soft mist inhaler. Aerodynamic particle size distribution of droplets of sample 14 was measured on a Next Generation Impactor (NGI). Next Generation Impactor operated at a flow rate of 30 L/min was used for determination of particle size distribution. For each of the impactor experiments, the impactor collection stages were coated with a silicone oil. The particle size distribution is expressed in terms of mass median aerodynamic diameter (MMAD) and Geometric Standard Deviation (GSD).

SMILES: COc1ccc(CC(C)NCC(O)c2ccc(O)c(NC=O)c2)cc1 (stereo not shown) [Formoterol fumarate, N-[2-hydroxy-5-(1-hydroxy-2-((2-(4-methoxyphenyl)-1-methylethy-1)amino)-ethyl)phenyl]formamide]
- MMAD (mass median aerodynamic diameter): 4.50 μm
